This series deals with SK-N-BE(2) cells. The series is described as follows: RNAseq transcriptomics of CBD response. The series is classed as cell-based, human. The note with it: 20 μM CBD. As to the method: In order to compare and contrast proteomic derived mechanistic components of the CBD response to that of transcriptomic components, the present inventors additionally performed RNAseq analysis of SK-N-BE(2) cells exposed to vehicle or 20 μM CBD at the time-points indicated in FIG. 1C. 5,643 differentially expressed genes were identified in the CBD response gene with a FDR<1%, which was further reduced to a list of 139 genes with an LFC>=1. […] While most of these annotations are supported by either the transcriptome or the proteome, dysregulation of cholesterol metabolism is supported by both. […] As a result of the agreement between proteomic and transcriptomic data, we focused our study thereafter on determining the role of cholesterol homeostasis in the CBD drug response.
Sequencing was performed on seven consecutive lanes. Median read counts per lane were ˜49,000 with a CV of ˜7%. Starting with 228 fastq files, each lane set was concatenated per condition. Using Trimmomtic-0.36, base pairs were trimmed if they dropped below a PHRED score of 15 within a sliding window of 4 bp. Remaining reads shorter than 35 base pairs were removed. Illumina adapter sequences were also clipped using Trimmomatic. […] Read alignment was accomplished using Tophat-2.0.13 and Cufflinks/Cuffdiff 2.2.1 was used for FPKM quantitation and differential expression analysis per time point.

Regarding `C=C(C)[C@@H]1CCC(C)=C[C@H]1c1c(O)cc(CCCCC)cc1O` [CBD, cannabidiol], the differentially expressed genes is 5,643 (FDR<1%); 139 (FDR<1% and LFC>=1).

For the origin of these results see US20210244686A1, “Novel Systems And Methods For The Therapeutic Use of Cannabinoids or Cannabinoid Analogs to Increase The Lipid Order of Cholesterol Containing Cell Membranes” (The Regents of the University of Colorado a body corporate, priority 2018, published 2021).
